Some of the results follow.

Sequences of proteins named here, by UniProt entry; tags and fusion partners are left off. A change or cut given only in a name is not applied to a line headed by its entry.
UniProt Q9H0C8: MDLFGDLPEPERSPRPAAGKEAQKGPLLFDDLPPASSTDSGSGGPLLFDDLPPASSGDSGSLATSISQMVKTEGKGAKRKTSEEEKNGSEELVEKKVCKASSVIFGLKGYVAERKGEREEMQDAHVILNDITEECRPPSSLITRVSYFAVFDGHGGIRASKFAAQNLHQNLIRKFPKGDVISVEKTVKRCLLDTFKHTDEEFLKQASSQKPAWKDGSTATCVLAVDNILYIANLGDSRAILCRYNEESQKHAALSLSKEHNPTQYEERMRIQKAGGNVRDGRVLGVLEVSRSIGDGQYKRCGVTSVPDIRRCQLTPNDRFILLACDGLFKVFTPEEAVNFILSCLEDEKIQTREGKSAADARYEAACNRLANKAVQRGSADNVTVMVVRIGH
UniProt Q7Z6Z7, whole entry, looked up: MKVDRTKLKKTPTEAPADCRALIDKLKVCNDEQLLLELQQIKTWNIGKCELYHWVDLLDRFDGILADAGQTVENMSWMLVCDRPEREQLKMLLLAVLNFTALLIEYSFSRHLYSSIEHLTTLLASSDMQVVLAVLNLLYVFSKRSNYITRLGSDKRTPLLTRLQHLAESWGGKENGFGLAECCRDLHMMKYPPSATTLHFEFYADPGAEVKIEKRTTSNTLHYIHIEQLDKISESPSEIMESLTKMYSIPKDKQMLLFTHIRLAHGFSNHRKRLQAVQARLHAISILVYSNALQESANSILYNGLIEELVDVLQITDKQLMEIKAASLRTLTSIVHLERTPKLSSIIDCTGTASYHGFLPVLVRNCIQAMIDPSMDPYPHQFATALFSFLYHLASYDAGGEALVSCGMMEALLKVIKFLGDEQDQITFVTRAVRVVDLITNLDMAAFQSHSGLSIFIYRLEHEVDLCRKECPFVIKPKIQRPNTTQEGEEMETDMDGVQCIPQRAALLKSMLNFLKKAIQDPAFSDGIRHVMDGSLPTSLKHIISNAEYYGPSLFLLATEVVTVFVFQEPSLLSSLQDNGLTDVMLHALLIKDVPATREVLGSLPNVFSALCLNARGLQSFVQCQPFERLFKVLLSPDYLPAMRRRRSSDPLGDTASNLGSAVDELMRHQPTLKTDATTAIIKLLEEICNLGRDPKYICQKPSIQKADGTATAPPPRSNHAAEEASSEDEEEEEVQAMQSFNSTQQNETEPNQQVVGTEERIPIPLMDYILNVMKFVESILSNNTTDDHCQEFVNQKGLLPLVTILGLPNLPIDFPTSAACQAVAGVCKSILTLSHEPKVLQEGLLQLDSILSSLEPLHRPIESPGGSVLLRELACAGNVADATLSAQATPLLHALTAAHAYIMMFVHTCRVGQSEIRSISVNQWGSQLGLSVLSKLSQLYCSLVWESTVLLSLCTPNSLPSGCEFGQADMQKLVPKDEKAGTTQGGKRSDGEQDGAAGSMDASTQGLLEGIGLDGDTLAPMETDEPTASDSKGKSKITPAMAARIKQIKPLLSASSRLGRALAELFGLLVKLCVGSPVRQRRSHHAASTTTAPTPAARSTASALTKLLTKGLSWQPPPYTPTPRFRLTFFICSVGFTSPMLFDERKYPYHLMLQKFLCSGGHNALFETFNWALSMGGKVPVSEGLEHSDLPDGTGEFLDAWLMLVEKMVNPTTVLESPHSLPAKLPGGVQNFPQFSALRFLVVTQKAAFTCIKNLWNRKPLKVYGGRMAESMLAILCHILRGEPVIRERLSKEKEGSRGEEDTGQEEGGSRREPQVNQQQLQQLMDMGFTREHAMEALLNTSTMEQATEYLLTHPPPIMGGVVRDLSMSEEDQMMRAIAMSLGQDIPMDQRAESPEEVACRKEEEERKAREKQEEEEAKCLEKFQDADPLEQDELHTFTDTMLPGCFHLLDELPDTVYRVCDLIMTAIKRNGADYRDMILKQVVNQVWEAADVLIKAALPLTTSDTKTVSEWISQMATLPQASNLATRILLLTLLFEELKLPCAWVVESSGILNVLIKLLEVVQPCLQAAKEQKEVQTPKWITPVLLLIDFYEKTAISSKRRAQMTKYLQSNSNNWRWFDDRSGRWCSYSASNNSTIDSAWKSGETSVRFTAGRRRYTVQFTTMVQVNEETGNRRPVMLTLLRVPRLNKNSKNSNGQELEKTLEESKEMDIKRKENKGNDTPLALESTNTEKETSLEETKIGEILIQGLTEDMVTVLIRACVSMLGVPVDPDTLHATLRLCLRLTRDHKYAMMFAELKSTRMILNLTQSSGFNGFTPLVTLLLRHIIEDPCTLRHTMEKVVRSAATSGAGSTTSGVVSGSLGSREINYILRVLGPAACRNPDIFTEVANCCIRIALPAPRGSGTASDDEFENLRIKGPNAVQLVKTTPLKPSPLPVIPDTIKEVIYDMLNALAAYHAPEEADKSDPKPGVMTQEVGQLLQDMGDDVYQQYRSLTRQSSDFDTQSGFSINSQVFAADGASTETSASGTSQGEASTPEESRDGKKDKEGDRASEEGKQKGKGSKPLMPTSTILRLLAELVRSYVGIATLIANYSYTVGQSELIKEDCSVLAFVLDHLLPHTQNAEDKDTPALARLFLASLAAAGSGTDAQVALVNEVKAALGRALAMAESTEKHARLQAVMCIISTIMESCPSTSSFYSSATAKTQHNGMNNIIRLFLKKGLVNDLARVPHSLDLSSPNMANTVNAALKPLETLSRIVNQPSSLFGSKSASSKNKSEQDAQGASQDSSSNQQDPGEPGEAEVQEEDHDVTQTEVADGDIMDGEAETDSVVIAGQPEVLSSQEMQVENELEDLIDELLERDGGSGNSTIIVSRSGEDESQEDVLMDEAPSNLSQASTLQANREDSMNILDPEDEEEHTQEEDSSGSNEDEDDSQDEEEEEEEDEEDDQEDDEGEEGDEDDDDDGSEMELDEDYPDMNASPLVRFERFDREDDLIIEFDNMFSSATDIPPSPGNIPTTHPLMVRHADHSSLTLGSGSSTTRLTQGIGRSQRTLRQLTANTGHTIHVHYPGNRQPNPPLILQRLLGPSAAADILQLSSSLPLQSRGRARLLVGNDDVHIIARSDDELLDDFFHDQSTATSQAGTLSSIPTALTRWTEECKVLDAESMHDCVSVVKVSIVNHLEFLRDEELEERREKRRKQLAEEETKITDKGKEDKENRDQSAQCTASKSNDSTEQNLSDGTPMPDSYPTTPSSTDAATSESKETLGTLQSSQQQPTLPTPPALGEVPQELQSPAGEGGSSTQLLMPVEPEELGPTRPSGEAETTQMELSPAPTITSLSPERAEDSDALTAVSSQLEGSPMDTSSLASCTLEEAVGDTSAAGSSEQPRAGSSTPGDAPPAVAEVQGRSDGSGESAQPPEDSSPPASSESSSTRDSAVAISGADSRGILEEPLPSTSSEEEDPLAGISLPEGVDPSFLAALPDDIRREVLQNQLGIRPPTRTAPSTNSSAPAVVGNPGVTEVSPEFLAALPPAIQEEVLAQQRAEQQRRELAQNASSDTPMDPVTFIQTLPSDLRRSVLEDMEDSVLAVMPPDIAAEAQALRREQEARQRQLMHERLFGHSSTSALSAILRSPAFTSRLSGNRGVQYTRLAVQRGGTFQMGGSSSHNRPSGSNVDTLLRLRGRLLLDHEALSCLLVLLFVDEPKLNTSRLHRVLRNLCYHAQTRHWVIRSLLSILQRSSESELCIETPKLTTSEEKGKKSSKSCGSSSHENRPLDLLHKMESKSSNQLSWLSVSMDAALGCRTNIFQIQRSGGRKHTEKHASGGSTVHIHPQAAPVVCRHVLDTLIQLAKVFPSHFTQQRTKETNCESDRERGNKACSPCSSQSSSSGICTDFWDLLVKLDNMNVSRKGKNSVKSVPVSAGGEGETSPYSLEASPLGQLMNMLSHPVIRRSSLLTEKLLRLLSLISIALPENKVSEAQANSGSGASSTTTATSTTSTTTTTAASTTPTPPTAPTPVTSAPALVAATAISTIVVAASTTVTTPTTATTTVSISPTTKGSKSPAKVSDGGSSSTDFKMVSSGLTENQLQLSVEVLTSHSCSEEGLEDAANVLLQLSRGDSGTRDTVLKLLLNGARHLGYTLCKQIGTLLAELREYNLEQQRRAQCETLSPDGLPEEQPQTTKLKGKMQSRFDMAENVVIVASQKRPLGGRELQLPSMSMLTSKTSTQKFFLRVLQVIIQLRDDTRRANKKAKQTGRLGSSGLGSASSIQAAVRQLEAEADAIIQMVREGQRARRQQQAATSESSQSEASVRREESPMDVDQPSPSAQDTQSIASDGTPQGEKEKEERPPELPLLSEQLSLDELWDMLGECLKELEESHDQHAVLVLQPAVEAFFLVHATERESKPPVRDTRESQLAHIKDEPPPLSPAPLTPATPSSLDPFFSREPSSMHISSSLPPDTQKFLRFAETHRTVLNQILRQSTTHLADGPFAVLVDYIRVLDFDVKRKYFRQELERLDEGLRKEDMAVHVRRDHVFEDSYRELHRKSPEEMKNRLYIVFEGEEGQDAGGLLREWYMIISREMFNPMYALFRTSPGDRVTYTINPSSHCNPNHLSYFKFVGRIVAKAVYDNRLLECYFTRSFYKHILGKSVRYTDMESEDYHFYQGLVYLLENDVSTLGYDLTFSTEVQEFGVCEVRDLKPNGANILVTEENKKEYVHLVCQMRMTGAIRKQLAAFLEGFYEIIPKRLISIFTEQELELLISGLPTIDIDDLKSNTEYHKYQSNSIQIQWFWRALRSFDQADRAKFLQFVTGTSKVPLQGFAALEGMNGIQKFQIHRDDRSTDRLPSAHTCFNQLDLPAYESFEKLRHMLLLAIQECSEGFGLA
UniProt Q08334: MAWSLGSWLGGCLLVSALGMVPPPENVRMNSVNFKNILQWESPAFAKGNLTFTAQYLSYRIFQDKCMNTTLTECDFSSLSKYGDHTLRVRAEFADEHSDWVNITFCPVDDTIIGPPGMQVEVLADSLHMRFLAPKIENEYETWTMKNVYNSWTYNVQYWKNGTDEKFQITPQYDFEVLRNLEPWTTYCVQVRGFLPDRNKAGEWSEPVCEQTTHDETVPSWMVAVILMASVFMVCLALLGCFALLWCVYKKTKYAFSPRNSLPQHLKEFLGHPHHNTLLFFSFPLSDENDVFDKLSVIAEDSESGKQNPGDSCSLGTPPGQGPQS
UniProt P78318: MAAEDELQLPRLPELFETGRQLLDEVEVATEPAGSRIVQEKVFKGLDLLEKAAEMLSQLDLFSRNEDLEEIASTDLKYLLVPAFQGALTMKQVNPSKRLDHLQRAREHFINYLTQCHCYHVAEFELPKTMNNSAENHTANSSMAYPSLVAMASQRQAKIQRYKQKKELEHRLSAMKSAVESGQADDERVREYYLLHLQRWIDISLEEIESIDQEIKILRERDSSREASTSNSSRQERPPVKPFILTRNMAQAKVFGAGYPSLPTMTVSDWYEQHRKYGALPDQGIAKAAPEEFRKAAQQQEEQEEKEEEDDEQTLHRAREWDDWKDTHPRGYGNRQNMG
UniProt Q9NX55: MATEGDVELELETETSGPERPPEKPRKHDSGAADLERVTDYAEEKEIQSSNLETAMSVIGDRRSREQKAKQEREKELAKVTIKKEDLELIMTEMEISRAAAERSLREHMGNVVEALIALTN
UniProt Q9Y4L1: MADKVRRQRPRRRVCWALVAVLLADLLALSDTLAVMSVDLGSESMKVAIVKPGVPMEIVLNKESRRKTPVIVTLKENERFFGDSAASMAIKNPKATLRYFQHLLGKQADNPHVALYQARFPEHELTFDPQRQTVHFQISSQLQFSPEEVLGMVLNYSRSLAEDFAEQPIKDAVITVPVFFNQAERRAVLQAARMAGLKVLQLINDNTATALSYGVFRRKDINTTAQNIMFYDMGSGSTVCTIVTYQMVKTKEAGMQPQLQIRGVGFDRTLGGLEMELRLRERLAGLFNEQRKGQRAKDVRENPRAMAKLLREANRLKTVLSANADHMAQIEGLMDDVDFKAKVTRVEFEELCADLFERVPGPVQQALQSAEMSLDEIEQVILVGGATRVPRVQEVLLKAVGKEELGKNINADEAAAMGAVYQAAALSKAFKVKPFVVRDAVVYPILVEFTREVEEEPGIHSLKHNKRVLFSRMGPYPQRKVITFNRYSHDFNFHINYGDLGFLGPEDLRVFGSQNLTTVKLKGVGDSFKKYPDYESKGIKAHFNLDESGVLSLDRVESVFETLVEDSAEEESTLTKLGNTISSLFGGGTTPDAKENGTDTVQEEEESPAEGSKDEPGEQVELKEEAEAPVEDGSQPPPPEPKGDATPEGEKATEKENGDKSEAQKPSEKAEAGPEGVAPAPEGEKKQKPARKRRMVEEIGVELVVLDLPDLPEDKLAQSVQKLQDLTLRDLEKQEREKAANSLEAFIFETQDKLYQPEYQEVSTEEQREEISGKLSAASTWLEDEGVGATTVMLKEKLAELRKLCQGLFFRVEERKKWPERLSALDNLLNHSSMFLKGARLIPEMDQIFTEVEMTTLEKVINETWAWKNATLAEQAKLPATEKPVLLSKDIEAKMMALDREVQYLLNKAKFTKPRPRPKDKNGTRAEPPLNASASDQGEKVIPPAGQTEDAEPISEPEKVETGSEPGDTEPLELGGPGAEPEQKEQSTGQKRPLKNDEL

Compound in the experiment: O=C(O)c1ccc2c(c1)nc(Nc1cccc(Cl)c1)c1ccncc12 [silmitasertib]
As to the kind of experiment: log2 fold change, soluble protein after heating vs DMSO (PISA); higher = thermal stabilisation; K562 lysate, 10 uM; active = over 0.2 and 3.5 SD of the protein, either way, in both replicates (recomputed). In a few lines:
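To prepare the extract, K562 pellets were dounce-homogenised in PBS pH 7.4 with 1 mM MgCl2, giving crude material at 1 mg/mL protein. This was treated with 10 μM compound for 30 min, then heated in aliquots for 3 min over 48°C-58°C before pooling and addition of NP-40 to 0.5% at 4°C. Centrifugation at 21,000xg for 90 min left soluble protein in the supernatant, which TMTpro 16plex LC-MS/MS quantified with equalised channel sums. Results are log-two fold changes in thermal stability compared with solvent controls, from duplicates.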
On to IDH3A (UniProt P50213), for which the log2 fold change was inactive: 0.008. In the case of IGSF3 (UniProt O75054), the log2 fold change is inactive: 0.098.

Consider ILKAP (UniProt Q9H0C8), for which the log2 fold change was inactive: 0.053. As for ICAM1 (UniProt P05362), the log2 fold change was inactive: -0.004.

Consider IDH3B (UniProt O43837), for which the log2 fold change was inactive: -0.013. Consider IGSF8 (UniProt Q969P0), for which the log2 fold change is inactive: 0.033. Then ILVBL (UniProt A1L0T0), with inactive: 0; and IDE, A0A3B3ISG5, with inactive: -0.011; and ILF2 (UniProt Q12905), with inactive: -0.011. Take HTATIP2 isoform 3 (UniProt Q9BUP3): the log2 fold change is inactive: 0.047. With IGF2BP1 (UniProt Q9NZI8) the figure was inactive: 0.075; with HYOU1 (UniProt J3QL06), inactive: 0.028; with IMPA1 isoform 3 (UniProt P29218), inactive: -0.013. IDH1 (UniProt O75874): the log2 fold change is inactive: 0.017. Take HUWE1 (UniProt Q7Z6Z7): the log2 fold change was inactive: 0.004. As for HSPA8 (UniProt P11142), the log2 fold change is inactive: -0.009.

IL10RB (UniProt Q08334): the log2 fold change was inactive: 0.074. IDH3G (UniProt P51553): the log2 fold change is inactive: 0.006.

Regarding ICAM5 (UniProt Q9UMF0), the log2 fold change is inactive: -0.034. As for IBA57 (UniProt Q5T440), the log2 fold change was inactive: 0.024.

As for IGBP1 (UniProt P78318), the log2 fold change was inactive: 0.005. As for IFI30 (UniProt P13284), the log2 fold change is inactive: -0.024. On to HYPK (UniProt Q9NX55), for which the log2 fold change is inactive: -0.026. As for IFITM3 (UniProt Q01628), the log2 fold change was inactive: -0.129. For the target IFT74 (UniProt Q96LB3), the log2 fold change is inactive: -0.023. As to INPP4A (UniProt Q96PE3), the log2 fold change was inactive: 0.002.

For HYOU1 (UniProt Q9Y4L1), the log2 fold change is inactive: -0.013. As to IDH2 (UniProt P48735), the log2 fold change was inactive: 0.051. Turning to INPP5K (UniProt Q9BT40), the log2 fold change was inactive: -0.002.

As to INTS1 (UniProt Q8N201), the log2 fold change was inactive: 0.027. Then IK (UniProt Q13123), with inactive: -0.019; and ILK (UniProt Q13418), with inactive: 0.086; and HUS1 (UniProt O60921), with inactive: -0.026.
